Measurements taken from paper PMC5811216, “Cleavage activates Dispatched for Sonic Hedgehog ligand release” (eLife, 2018).
These are yes or no findings as the source states them, for the method shown. Binding seen in cells or lysates may run through a third protein. Binding calls can cover weak binding; strength is not graded here.

Chains of the proteins cited; added tags and fusions are not shown. Lines headed by an entry give the natural chain unless they say otherwise; changes in a name come on top.
UniProt Q3TDN0: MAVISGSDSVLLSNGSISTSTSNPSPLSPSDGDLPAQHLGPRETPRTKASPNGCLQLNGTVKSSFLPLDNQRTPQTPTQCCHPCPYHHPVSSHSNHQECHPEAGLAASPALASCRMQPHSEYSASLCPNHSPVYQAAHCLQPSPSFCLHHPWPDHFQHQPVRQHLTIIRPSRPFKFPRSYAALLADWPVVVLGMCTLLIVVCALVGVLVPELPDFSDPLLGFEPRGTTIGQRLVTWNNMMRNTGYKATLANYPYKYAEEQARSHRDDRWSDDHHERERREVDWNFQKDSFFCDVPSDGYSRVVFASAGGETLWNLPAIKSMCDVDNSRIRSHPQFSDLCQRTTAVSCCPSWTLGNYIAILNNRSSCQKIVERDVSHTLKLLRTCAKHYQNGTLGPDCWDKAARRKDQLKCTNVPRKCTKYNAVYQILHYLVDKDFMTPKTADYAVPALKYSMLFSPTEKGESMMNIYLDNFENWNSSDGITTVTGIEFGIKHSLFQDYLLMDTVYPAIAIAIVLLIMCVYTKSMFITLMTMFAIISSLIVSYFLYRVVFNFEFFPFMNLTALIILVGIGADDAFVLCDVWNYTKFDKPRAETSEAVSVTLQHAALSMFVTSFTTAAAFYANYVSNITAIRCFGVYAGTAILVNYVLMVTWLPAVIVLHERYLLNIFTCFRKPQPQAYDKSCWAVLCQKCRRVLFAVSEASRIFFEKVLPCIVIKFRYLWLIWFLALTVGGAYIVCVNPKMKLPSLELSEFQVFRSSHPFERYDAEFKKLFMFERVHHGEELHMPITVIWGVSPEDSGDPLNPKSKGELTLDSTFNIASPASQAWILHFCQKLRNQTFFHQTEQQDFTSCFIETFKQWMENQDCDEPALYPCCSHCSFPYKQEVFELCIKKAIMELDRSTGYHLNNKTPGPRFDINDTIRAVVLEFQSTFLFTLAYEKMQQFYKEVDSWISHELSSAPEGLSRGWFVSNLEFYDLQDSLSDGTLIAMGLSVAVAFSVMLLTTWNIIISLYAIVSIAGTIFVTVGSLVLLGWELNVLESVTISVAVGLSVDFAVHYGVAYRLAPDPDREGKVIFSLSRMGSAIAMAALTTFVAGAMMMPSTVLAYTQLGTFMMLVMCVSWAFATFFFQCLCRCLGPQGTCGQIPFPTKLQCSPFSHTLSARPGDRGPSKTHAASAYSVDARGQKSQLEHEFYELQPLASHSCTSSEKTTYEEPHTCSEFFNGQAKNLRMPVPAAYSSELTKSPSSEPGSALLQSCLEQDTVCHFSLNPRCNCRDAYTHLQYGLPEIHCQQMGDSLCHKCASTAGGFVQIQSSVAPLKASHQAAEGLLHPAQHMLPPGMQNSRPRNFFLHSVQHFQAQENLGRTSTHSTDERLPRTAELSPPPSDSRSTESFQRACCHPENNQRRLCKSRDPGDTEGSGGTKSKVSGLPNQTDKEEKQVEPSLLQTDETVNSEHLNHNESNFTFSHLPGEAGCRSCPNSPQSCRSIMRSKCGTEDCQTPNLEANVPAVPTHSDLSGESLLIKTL
UniProt Q62226: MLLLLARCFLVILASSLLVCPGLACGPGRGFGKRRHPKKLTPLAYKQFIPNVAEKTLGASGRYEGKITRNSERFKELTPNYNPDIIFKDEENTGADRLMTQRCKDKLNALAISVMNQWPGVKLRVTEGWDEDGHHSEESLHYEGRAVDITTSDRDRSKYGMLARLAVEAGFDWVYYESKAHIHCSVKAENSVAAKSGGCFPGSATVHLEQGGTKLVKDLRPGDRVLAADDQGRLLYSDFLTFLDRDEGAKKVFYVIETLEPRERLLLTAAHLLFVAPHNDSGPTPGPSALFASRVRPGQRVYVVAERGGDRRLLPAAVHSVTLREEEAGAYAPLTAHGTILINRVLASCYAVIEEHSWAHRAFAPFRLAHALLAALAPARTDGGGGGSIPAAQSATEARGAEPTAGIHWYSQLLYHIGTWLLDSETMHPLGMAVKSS

How the values were obtained:
[1] = biological target: V5DispHA, wild-type murine Dispatched 1 with V5 and HA tags, expressed in Disp-/- cells (mouse) (UniProt Q3TDN0); test: co-IP; Disp proteins co-expressed with Shh in Disp-/- cells; DispHA immunoprecipitated from lysates on anti-HA affinity gel; anti-Shh western blot
[2] = biological target: V5DispHA CS, cleavage site mutant (R279A, E280A) of murine Dispatched 1, expressed in Disp-/- cells (mouse) (UniProt Q3TDN0); test: as above

binding [1]: binds | binding [2]: binds
Substance: Sonic Hedgehog (Shh) (from UniProt Q62226) (ligand)
